Measurements reported in publication PMC5291090.
For at least one entry, the source does not settle the construct or the ends of the probe. Results from cells or extracts need not show a direct contact. For part of these data: A negative result means that nothing was seen under these conditions. For part of these data: At least one verdict rests on a figure or table, not on a statement of the authors. Where a protein sequence is shown, tags need not be part of it.

Tests used:
STAT (Aedes aegypti) [1] = target: T1, STAT (Aedes aegypti) (UniProt B8LFE5); experiment: competition with a labelled probe; conditions: 1 mM Tris pH 7.5, 50 mM KCl, 1 mM DTT, 0.05% NP-40, 2.5% glycerol, 50 ng/uL poly(dI:dC), 20 min at room temperature, 5% polyacrylamide gel, protein in an extract, protein details: V5-His (pAc5.1-V5-His A)
T1 sequence (looked up, limits assumed): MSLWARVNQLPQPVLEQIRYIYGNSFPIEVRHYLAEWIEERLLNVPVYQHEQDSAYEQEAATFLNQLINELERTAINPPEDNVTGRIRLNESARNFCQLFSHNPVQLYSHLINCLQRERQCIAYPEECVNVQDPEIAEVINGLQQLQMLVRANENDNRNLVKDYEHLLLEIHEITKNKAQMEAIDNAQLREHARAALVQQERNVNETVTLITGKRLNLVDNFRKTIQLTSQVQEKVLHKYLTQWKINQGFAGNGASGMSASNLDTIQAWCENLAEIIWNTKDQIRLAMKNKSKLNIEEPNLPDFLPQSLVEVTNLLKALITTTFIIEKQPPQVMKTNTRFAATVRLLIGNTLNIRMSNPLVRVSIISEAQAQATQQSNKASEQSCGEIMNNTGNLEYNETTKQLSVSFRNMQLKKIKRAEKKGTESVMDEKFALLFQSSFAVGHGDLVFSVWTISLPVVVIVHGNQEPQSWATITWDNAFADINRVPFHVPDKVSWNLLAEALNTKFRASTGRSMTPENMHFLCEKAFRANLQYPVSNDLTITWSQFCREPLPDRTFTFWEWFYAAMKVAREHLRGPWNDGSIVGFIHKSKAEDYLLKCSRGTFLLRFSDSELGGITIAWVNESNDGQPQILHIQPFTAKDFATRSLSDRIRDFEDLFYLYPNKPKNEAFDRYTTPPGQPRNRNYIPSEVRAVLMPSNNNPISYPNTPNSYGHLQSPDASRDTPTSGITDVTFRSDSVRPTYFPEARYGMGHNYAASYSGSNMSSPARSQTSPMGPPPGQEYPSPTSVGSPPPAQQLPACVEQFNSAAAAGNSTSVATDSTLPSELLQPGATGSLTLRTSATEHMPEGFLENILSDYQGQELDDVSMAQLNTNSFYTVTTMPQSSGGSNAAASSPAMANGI

STAT (Aedes aegypti) [2] = target: T1, STAT (Aedes aegypti); experiment: EMSA supershift; conditions: anti-V5 antibody; 1 mM Tris pH 7.5, 50 mM KCl, 1 mM DTT, 0.05% NP-40, 2.5% glycerol, 50 ng/uL poly(dI:dC), 20 min at room temperature, 5% polyacrylamide gel; protein in an extract; protein details: V5-His (pAc5.1-V5-His A)

Sequence | binding result (STAT (Aedes aegypti) [1]; unlabeled mutant competitor) | binding result (STAT (Aedes aegypti) [2]) | binding result (STAT (Aedes aegypti) [1]; unlabeled specific competitor)
TTGACATAACCATAATACATCCAAGCTGGTAAACGCAGACGACGATCAAC (double strand) [m1-mutant competitor] | no binding |  | 
TTGACATAACCATAATACATTTCCATGAATAAACGCAGACGACGATCAAC (double strand) [m1-probe (Gambicin promoter STAT site -577 to -568)] |  | binds | binds
